Results taken from EP3461842A1.
These are yes or no findings as the source states them, for the method shown. Some entries that bind do so weakly or less than the wild type. Sequences can lack the tags named with a protein.

Experiments:
[1] = target: T1, 1-27 CD3-EpCAM, marmoset 27 mer (Callithrix jacchus CD3 epsilon 1-27, Flag tag, cynomolgus EpCAM) (Callithrix jacchus; cynomolgus monkey); experiment: FACS, 293-HEK transfectant
T1 sequence: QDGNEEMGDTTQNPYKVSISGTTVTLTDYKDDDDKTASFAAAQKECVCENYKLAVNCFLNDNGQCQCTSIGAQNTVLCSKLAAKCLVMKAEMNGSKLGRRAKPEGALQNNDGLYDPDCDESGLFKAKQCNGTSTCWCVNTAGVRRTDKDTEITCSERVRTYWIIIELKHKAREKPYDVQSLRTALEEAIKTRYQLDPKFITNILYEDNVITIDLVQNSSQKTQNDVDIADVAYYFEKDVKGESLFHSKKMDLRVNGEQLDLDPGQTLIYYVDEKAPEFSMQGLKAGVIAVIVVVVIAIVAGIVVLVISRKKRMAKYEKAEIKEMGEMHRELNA

[2] = target: T2, 1-27 CD3-EpCAM, tamarin 27 mer (Saguinus oedipus CD3 epsilon 1-27, Flag tag, cynomolgus EpCAM) (Saguinus oedipus; cynomolgus monkey); experiment: FACS, 293-HEK transfectant
T2 sequence: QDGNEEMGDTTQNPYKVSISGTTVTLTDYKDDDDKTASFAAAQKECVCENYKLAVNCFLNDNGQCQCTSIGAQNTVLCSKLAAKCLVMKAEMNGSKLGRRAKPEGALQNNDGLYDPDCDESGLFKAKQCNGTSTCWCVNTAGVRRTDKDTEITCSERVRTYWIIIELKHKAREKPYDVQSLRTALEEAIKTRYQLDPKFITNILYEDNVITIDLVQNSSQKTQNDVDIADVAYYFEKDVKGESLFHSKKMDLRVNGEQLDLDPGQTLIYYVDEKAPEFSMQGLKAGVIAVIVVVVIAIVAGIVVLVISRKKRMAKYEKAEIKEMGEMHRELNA

- binding [1]: binds
- binding [2]: binds
B1: E2M HLP single-chain antibody (scFv)
scFv: EVQLLESGGGLVQPGGSLKLSCAASGFTFNGYAMNWVRQAPGKGLEWVARIRSKYNNYATYYADSVKERFTISRDDSKNTAYLQMNNLKTEDTAVYYCVRHRNFGNSYLSWFAYWGQGTLVTVSSGGGGSGGGGSGGGGSELVVTQEPSLTVSPGGTVTLTCRSSTGAVTSGYYPNWVQQKPGQAPRGLIGATDMRPSGTPARFSGSLLGGKAALTLSGVQPEDEAEYYCALWYSNRWVFGGGTKLTVL
